From the supplement of paper PMC8728848
This is one part of the list.

Tests used:
Assay in all cases: glycan array binding signal (z-score within array); higher = stronger binding
Settings in all cases: glycan notation: IUPAC condensed, linker removed
[1] = molecular target: GlcNAc(b1-4)GlcNAc(b1-4)GlcNAc(b1-4)GlcNAc(b1-4)GlcNAc(b1-4)GlcNAc
Outline: (§1)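 The Consortium for Functional Glycomics database supplied 3228 glycan arrays, of which those lacking an available protein sequence were dropped. The binding signal, a within-array Z-score, was averaged across arrays of the same protein sequence and across linkers. Negative scores can be read as non-binding.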

[2] = molecular target: GlcNAc(b1-4)[GlcNAc(b1-6)]GalNAc
Outline: as §1

[3] = molecular target: GlcNAc(b1-6)Gal(b1-4)GlcNAc
Outline: as §1

GlcNAc(b1-6)GalNAc = molecular target: GlcNAc(b1-6)GalNAc
Outline: as §1

[4] = molecular target: GlcNAc6S(b1-3)Gal(b1-4)GlcNAc
Outline: as §1

Kdn(a2-3)Gal(b1-3)GalNAc = molecular target: Kdn(a2-3)Gal(b1-3)GalNAc
Outline: as §1

Kdn(a2-3)Gal(b1-3)GlcNAc = molecular target: Kdn(a2-3)Gal(b1-3)GlcNAc
Outline: as §1

Kdn(a2-3)Gal(b1-4)Glc = molecular target: Kdn(a2-3)Gal(b1-4)Glc
Outline: as §1

Kdn(a2-3)Gal(b1-4)GlcNAc = molecular target: Kdn(a2-3)Gal(b1-4)GlcNAc
Outline: as §1

[5] = molecular target: Kdn(a2-3)Gal(b1-4)[Fuc(a1-3)]GlcNAc
Outline: as §1

Kdn(a2-6)Gal(b1-4)GlcNAc = molecular target: Kdn(a2-6)Gal(b1-4)GlcNAc
Outline: as §1

[6] = molecular target: Man(a1-2)Man(a1-2)Man(a1-3)Man
Outline: as §1

[7] = molecular target: Man(a1-2)Man(a1-2)Man(a1-6)[Man(a1-3)]Man
Outline: as §1

Man(a1-2)Man(a1-3)Man = molecular target: Man(a1-2)Man(a1-3)Man
Outline: as §1

[8] = molecular target: Man(a1-2)Man(a1-3)[Man(a1-2)Man(a1-6)]Man
Outline: as §1

[9] = molecular target: Man(a1-2)Man(a1-3)[Man(a1-2)Man(a1-6)]Man(a1-6)[Man(a1-2)Man(a1-2)Man(a1-3)]Man
Outline: as §1

[10] = molecular target: Man(a1-2)Man(a1-3)[Man(a1-2)Man(a1-6)]Man(a1-6)[Man(a1-2)Man(a1-2)Man(a1-3)]Man(b1-4)GlcNAc(b1-4)GlcNAc
Outline: as §1

[11] = molecular target: Man(a1-2)Man(a1-3)[Man(a1-6)]Man(a1-6)[Man(a1-2)Man(a1-3)]Man(b1-4)GlcNAc(b1-4)GlcNAc
Outline: as §1

[12] = molecular target: Man(a1-2)Man(a1-6)[Man(a1-3)]Man(a1-6)[Man(a1-2)Man(a1-2)Man(a1-3)]Man
Outline: as §1

[13] = molecular target: Man(a1-2)Man(a1-6)[Man(a1-3)]Man(a1-6)[Man(a1-2)Man(a1-2)Man(a1-3)]Man(b1-4)GlcNAc(b1-4)GlcNAc
Outline: as §1

Man(a1-3)[Man(a1-6)]Man = molecular target: Man(a1-3)[Man(a1-6)]Man
Outline: as §1

[14] = molecular target: Man(a1-3)[Man(a1-6)]Man(a1-6)[Man(a1-2)Man(a1-3)]Man(b1-4)GlcNAc(b1-4)GlcNAc
Outline: as §1

[15] = molecular target: Man(a1-3)[Man(a1-6)]Man(a1-6)[Man(a1-3)]Man
Outline: as §1

[16] = molecular target: Man(a1-3)[Man(a1-6)]Man(a1-6)[Man(a1-3)]Man(b1-4)GlcNAc(b1-4)GlcNAc
Outline: as §1

[17] = molecular target: Man(a1-3)[Man(a1-6)]Man(b1-4)GlcNAc(b1-4)GlcNAc
Outline: as §1

[18] = molecular target: Man(a1-3)[Man(a1-6)]Man(b1-4)GlcNAc(b1-4)[Fuc(a1-6)]GlcNAc
Outline: as §1

Man(a1-6)Man = molecular target: Man(a1-6)Man
Outline: as §1

Man(b1-4)GlcNAc = molecular target: Man(b1-4)GlcNAc
Outline: as §1

MurNAc(b1-4)GlcNAc = molecular target: MurNAc(b1-4)GlcNAc
Outline: as §1

Neu5Ac(a2-3)Gal = molecular target: Neu5Ac(a2-3)Gal
Outline: as §1

[19] = molecular target: Neu5Ac(a2-3)Gal(b1-3)GalNAc
Outline: as §1

[20] = molecular target: Neu5Ac(a2-3)Gal(b1-3)GalNAc(b1-3)Gal(a1-4)Gal(b1-4)Glc
Outline: as §1

[21] = molecular target: Neu5Ac(a2-3)Gal(b1-3)GalNAc(b1-4)Gal(b1-4)Glc
Outline: as §1

[22] = molecular target: Neu5Ac(a2-3)Gal(b1-3)GalNAc(b1-4)[Neu5Ac(a2-3)]Gal(b1-4)Glc
Outline: as §1

[23] = molecular target: Neu5Ac(a2-3)Gal(b1-3)GalNAc(b1-4)[Neu5Ac(a2-8)Neu5Ac(a2-3)]Gal(b1-4)Glc
Outline: as §1

[24] = molecular target: Neu5Ac(a2-3)Gal(b1-3)GalNAc6S
Outline: as §1

[25] = molecular target: Neu5Ac(a2-3)Gal(b1-3)GlcNAc
Outline: as §1

[26] = molecular target: Neu5Ac(a2-3)Gal(b1-3)GlcNAc(b1-2)Man
Outline: as §1

[27] = molecular target: Neu5Ac(a2-3)Gal(b1-3)GlcNAc(b1-2)Man(a1-3)[GlcNAc(b1-4)][Neu5Ac(a2-3)Gal(b1-3)GlcNAc(b1-2)Man(a1-6)]Man(b1-4)GlcNAc(b1-4)GlcNAc
Outline: as §1

[28] = molecular target: Neu5Ac(a2-3)Gal(b1-3)GlcNAc(b1-2)Man(a1-3)[Neu5Ac(a2-3)Gal(b1-3)GlcNAc(b1-2)Man(a1-6)]Man(b1-4)GlcNAc(b1-4)GlcNAc
Outline: as §1

[29] = molecular target: Neu5Ac(a2-3)Gal(b1-3)GlcNAc(b1-2)[Neu5Ac(a2-3)Gal(b1-3)GlcNAc(b1-4)]Man(a1-6)[Neu5Ac(a2-3)Gal(b1-3)GlcNAc(b1-2)Man(a1-3)]Man(b1-4)GlcNAc(b1-4)GlcNAc
Outline: as §1

[30] = molecular target: Neu5Ac(a2-3)Gal(b1-3)GlcNAc(b1-3)Gal(b1-3)GlcNAc
Outline: as §1

[31] = molecular target: Neu5Ac(a2-3)Gal(b1-3)GlcNAc(b1-3)Gal(b1-4)GlcNAc
Outline: as §1

[32] = molecular target: Neu5Ac(a2-3)Gal(b1-3)GlcNAc(b1-3)GalNAc
Outline: as §1

[33] = molecular target: Neu5Ac(a2-3)Gal(b1-3)GlcNAc(b1-6)GalNAc
Outline: as §1

B1: LlpB (Pseudomonas fluorescens) (protein)
chain: MGSSHHHHHHSSGLVPRGSHMASSGFRIILFNSANNGTAILPPRNCLVAGQYLESPSKRYKLILEADGNLRLYDNGVPIWVADSSVPYTYVDNRPNTNLVTCFYMQGSAFLVDRVGSRTWATIGDWIDGAADRAYLQVQDDGNVVVVDGVPRWARFGFTPAALPNRGVFYPDHGTGPLPSFPVWSWTF
Q: With B1 as the binder, how does the “glycan array binding signal (z-score)” value [1] read?
A: 1.48

Q: What about the “glycan array binding signal (z-score)” value [2] of the same binder?
A: -0.513

Q: What about the “glycan array binding signal (z-score)” value [3] of the same binder?
A: 1.78

Q: What about the “glycan array binding signal (z-score)” value (GlcNAc(b1-6)GalNAc) of the same binder?
A: -1.23

Q: What about the “glycan array binding signal (z-score)” value [4] of the same binder?
A: -1.16

Q: What about the “glycan array binding signal (z-score)” value (Kdn(a2-3)Gal(b1-3)GalNAc) of the same binder?
A: 1.46

Q: And the “glycan array binding signal (z-score)” value (Kdn(a2-3)Gal(b1-3)GlcNAc)?
A: 0.492

Q: What about the “glycan array binding signal (z-score)” value (Kdn(a2-3)Gal(b1-4)Glc) of the same binder?
A: 3.03

Q: And the “glycan array binding signal (z-score)” value (Kdn(a2-3)Gal(b1-4)GlcNAc)?
A: -1.32

Q: And the “glycan array binding signal (z-score)” value [5]?
A: -0.158

Q: And the “glycan array binding signal (z-score)” value (Kdn(a2-6)Gal(b1-4)GlcNAc)?
A: 0.364

Q: What about the “glycan array binding signal (z-score)” value [6] of the same binder?
A: 0.105

Q: And the “glycan array binding signal (z-score)” value [7]?
A: -1.38

Q: And the “glycan array binding signal (z-score)” value (Man(a1-2)Man(a1-3)Man)?
A: 0.294

Q: And the “glycan array binding signal (z-score)” value [8]?
A: -0.485

Q: And the “glycan array binding signal (z-score)” value [9]?
A: -0.376

Q: What about the “glycan array binding signal (z-score)” value [10] of the same binder?
A: -0.549

Q: What about the “glycan array binding signal (z-score)” value [11] of the same binder?
A: -0.792

Q: And the “glycan array binding signal (z-score)” value [12]?
A: 0.205

Q: What about the “glycan array binding signal (z-score)” value [13] of the same binder?
A: -0.303

Q: And the “glycan array binding signal (z-score)” value (Man(a1-3)[Man(a1-6)]Man)?
A: -0.46

Q: What about the “glycan array binding signal (z-score)” value [14] of the same binder?
A: -1.03

Q: And the “glycan array binding signal (z-score)” value [15]?
A: -1.07

Q: And the “glycan array binding signal (z-score)” value [16]?
A: 0.605

Q: What about the “glycan array binding signal (z-score)” value [17] of the same binder?
A: 0.621

Q: And the “glycan array binding signal (z-score)” value [18]?
A: -0.549

Q: And the “glycan array binding signal (z-score)” value (Man(a1-6)Man)?
A: 0.82

Q: And the “glycan array binding signal (z-score)” value (Man(b1-4)GlcNAc)?
A: 1.66

Q: And the “glycan array binding signal (z-score)” value (MurNAc(b1-4)GlcNAc)?
A: 2.54

Q: And the “glycan array binding signal (z-score)” value (Neu5Ac(a2-3)Gal)?
A: -0.87

Q: What about the “glycan array binding signal (z-score)” value [19] of the same binder?
A: -0.316

Q: What about the “glycan array binding signal (z-score)” value [20] of the same binder?
A: 1.05

Q: What about the “glycan array binding signal (z-score)” value [21] of the same binder?
A: -1.02

Q: What about the “glycan array binding signal (z-score)” value [22] of the same binder?
A: 2.9

Q: What about the “glycan array binding signal (z-score)” value [23] of the same binder?
A: -1.93

Q: What about the “glycan array binding signal (z-score)” value [24] of the same binder?
A: -0.819

Q: And the “glycan array binding signal (z-score)” value [25]?
A: 0.012

Q: And the “glycan array binding signal (z-score)” value [26]?
A: 2.63

Q: What about the “glycan array binding signal (z-score)” value [27] of the same binder?
A: -0.515

Q: And the “glycan array binding signal (z-score)” value [28]?
A: 1.14

Q: And the “glycan array binding signal (z-score)” value [29]?
A: -0.567

Q: And the “glycan array binding signal (z-score)” value [30]?
A: 0.202

Q: And the “glycan array binding signal (z-score)” value [31]?
A: 0.213

Q: And the “glycan array binding signal (z-score)” value [32]?
A: -0.863

Q: And the “glycan array binding signal (z-score)” value [33]?
A: -0.193
